Data taken from patent publication US12016858B2, “Methods for the treatment of abnormal involuntary movement disorders” (AUSPEX PHARMACEUTICALS, INC., priority 2015, dated 2024).

System: subjects with manifest HD, chorea
Assay: ARC-HD open-label, single-arm study (Rollover and Switch cohorts)
Assay type: in vivo, human
Conditions: Week 28
Description: In a second clinical trial, a method for converting patients with adequate control of chorea with tetrabenazine to deutetrabenazine treatment was implemented. Alternatives for Reducing Chorea in Huntington Disease (ARC-HD) was an open-label, single-arm study in which subjects with manifest HD who were receiving FDA-approved doses of tetrabenazine for the treatment of chorea or had successfully completed First-HD were invited to participate. The study thus comprised two cohorts. […] The investigator, in consultation with the subject and caregiver, determined when an adequate level of chorea control had been achieved. If a subject experienced a “clinically significant” adverse event attributable to deutetrabenazine, the investigator determined if a dose reduction or suspension was necessary. […] The investigator, in consultation with the subject and caregiver, determined when an adequate level of chorea control was achieved; the dose of DTBZ could be increased on a weekly basis until there was adequate control of chorea, the subject experienced a protocol defined clinically significant adverse event, or the maximal allowable dose was reached. […]

Structure (SMILES): [2H]C([2H])([2H])Oc1cc2c(cc1OC([2H])([2H])[2H])C1CC(=O)C(CC(C)C)CN1CC2 (stereo not drawn) [deutetrabenazine, (RR, SS)-1,3,4,6,7,11b-hexahydro-9,10-di(methoxy-d3)-3-(2-methylpropyl)-2H-benzo[a]quinolizin-2-one]
- weight loss (trend) (Rollover Cohort): 1.4 kg
- weight loss (trend) (Switch cohort): 1.9 kg
